Counter-ions that a name gives are not always drawn. Not every detail of the peptide structures is certain; ends, links or a residue may be inferred.
System: Sprague-Dawley rats
Assay: estrus suppression in the rat after a single subcutaneous administration of the composition
Assay type: in vivo
Details: single subcutaneous injection of 1 ml per rat; vehicle 2% aluminum monostearate in sesame oil; equivalent to 1 mg/ml LH-RH analogue

In the case of `CCNC(=O)[C@@H]1CCCN1C(=O)[C@H](CCCNC(=N)N)NC(=O)[C@H](CC(C)C)NC(=O)[C@@H](Cc1c[nH]c2ccccc12)NC(=O)[C@H](Cc1ccc(O)cc1)NC(=O)[C@H](CO)NC(=O)[C@H](Cc1c[nH]c2ccccc12)NC(=O)[C@H](Cc1c[nH]cn1)NC(=O)[C@@H]1CCC(=O)N1` [pamoate salt, desGly^10-[D-Trp^6, ProNHEt^9]-LHRH], the “average number of days from administration at which 50% of the rats in the group showed return of estrus” value is reported as “comparable results”.
